Results on one molecule are retold here after PMC4059916.

The chains behind the UniProt entries cited, without tags or fusion partners. Where a name states a change or a piece, a line headed by the entry shows the natural chain unless it says otherwise.
UniProt Q13637: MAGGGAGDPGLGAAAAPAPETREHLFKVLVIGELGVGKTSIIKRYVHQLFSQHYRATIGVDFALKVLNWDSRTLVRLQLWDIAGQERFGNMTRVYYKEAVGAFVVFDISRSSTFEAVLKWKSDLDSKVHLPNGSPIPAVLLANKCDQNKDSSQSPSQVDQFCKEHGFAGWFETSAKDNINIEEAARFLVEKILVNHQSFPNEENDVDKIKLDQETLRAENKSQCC

Results are given in words; binding and its absence hold for the method and conditions named. Binding calls can cover weak binding; strength is not graded here. Tags and fused reporters may be left off the sequences shown.

The target in the test is GSTRab32(Q85L) mutated at M91/R93 (Switch-II) (UniProt Q13637). Briefly: pull-down; GSTRab32(Q85L) or GST as bait on GSH-sepharose, VARP451-640His6 as prey; 25-50 μg bait, 300 μg prey in 500 μl; 5 mM MgCl2, 0.5 mM TCEP, 100 μM matching nucleotide; 1 hr at 4°C; washes with 1% NP40; Coomassie and anti-His probe blot; both purified.

B1: VARP451-640His6 (first ankyrin repeat domain, ANKRD1), wild type (domain or fragment, UniProt Q96NW4 451-640)
chain: PSVVTPFSRDDRGHTPLHVAAVCGQASLIDLLVSKGAMVNATDYHGATPLHLACQKGYQSVTLLLLHYKASAEVQDNNGNTPLHLACTYGHEDCVKALVYYDVESCRLDIGNEKGDTPLHIAARWGYQGVIETLLQNGASTEIQNRLKETPLKCALNSKILSVMEAYHLSFERRQKSSEAPVQSPQRSVD
With B1, the binding result was “binds”.
